# Experimental data reported in the supplement of paper PMC4604168 (melanoma cell lines).
# The other results are listed elsewhere or left out. Many values rest on one well or one pass, so single values are uncertain.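 The apoptosis fraction was the count of cleaved-PARP antibody-stained nuclei relative to all DNA-stained nuclei, imaged in 1,536-well plates. Screening doses were set so most cells survived, and baseline and induced cleaved-PARP levels vary greatly across cell lines.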
# How the values were obtained:
# Assay in all cases: cleaved PARP positive nuclei fraction relative to DMSO control; melanoma cells; higher = more apoptosis
# Details in all cases: library dose: low library concentration; 72 h
# MZ2-MEL = tested on: MZ2-MEL
# MeWo = tested on: MeWo
# RPMI7951 = tested on: RPMI7951
# RVH-421 = tested on: RVH-421
# SkMel28 = tested on: SkMel28
# SkMel2 = tested on: SkMel2
# SkMel30 = tested on: SkMel30
# SkMel5 = tested on: SkMel5
# UACC257 = tested on: UACC257
# UACC62 = tested on: UACC62
# WM115 = tested on: WM115
# WM1716 = tested on: WM1716
# WM1745 = tested on: WM1745
# WM3526 = tested on: WM3526
# WM3619 = tested on: WM3619
# WM451Lu = tested on: WM451Lu
Compound,cleaved PARP positive nuclei fraction (MZ2-MEL),cleaved PARP positive nuclei fraction (MeWo),cleaved PARP positive nuclei fraction (RPMI7951),cleaved PARP positive nuclei fraction (RVH-421),cleaved PARP positive nuclei fraction (SkMel28),cleaved PARP positive nuclei fraction (SkMel2),cleaved PARP positive nuclei fraction (SkMel30),cleaved PARP positive nuclei fraction (SkMel5),cleaved PARP positive nuclei fraction (UACC257),cleaved PARP positive nuclei fraction (UACC62),cleaved PARP positive nuclei fraction (WM115),cleaved PARP positive nuclei fraction (WM1716),cleaved PARP positive nuclei fraction (WM1745),cleaved PARP positive nuclei fraction (WM3526),cleaved PARP positive nuclei fraction (WM3619),cleaved PARP positive nuclei fraction (WM451Lu)
"CS(=O)(=O)c1ccc(C(=O)Nc2ccc(Cl)c(-c3ccccn3)c2)c(Cl)c1 [vismodegib] + O=C(O)C(=O)Nc1sc2c(c1C(=O)O)CCNC2 [TCS401] (first compound 1 µM, partner dose 1.66667 µM)",119%,45.7%,37.5%,79.2%,53.9%,175%,155%,77.2%,115%,232%,35.8%,53.9%,98%,80.7%,89.7%,68.8%
"CCCCCCCCc1ccc(CCC(N)(CO)CO)cc1 [fingolimod] + O=S(=O)(c1ccccc1)N(CC(F)(F)F)c1ccc(C(O)(C(F)(F)F)C(F)(F)F)cc1 [T0901317] (first compound 2 µM, partner dose 1.4 µM)",51.5%,43.3%,226%,66.9%,197%,73.1%,68.6%,106%,79.6%,174%,115%,142%,144%,182%,136%,40.2%
"CC(=O)O[C@@]12CO[C@@H]1C[C@H](O)[C@@]1(C)C(=O)[C@H](O)C3=C(C)[C@@H](OC(=O)[C@H](O)[C@@H](NC(=O)OC(C)(C)C)c4ccccc4)C[C@@](O)([C@@H](OC(=O)c4ccccc4)[C@H]21)C3(C)C [Docetaxel] + COc1cc(Nc2ncc(F)c(Nc3ccc4c(n3)NC(=O)C(C)(C)O4)n2)cc(OC)c1OC [Tamatinib] (first compound 0.0001 µM, partner dose 0.4 µM)",526%,284%,437%,86.2%,155%,332%,226%,90.8%,492%,574%,346%,1390%,313%,144%,163%,239%
"CCN(CC)CCNC(=O)c1c(C)[nH]c(/C=C2\C(=O)Nc3ccc(F)cc32)c1C [sunitinib] + N#Cc1c(O)c2c(-c3ccc(-c4ccccc4O)cc3)csc2[nH]c1=O [A769662] (first compound 0.4 µM, partner dose 2 µM)",167%,222%,107%,52.7%,56%,123%,99.2%,79.3%,139%,122%,150%,76.8%,103%,71.2%,89.8%,62.7%
"CS(=O)(=O)c1ccc(C(=O)Nc2ccc(Cl)c(-c3ccccn3)c2)c(Cl)c1 [vismodegib] + CCN(CC)CCCCNc1ncc2cc(-c3cc(OC)cc(OC)c3)c(NC(=O)NC(C)(C)C)nc2n1 [PD173074] (first compound 1 µM, partner dose 0.1 µM)",25.3%,83.1%,60.4%,233%,118%,86.7%,36.1%,31.6%,149%,56.7%,52%,124%,82.8%,66.8%,83.9%,86.1%
"CCN(CC)CCNC(=O)c1c(C)[nH]c(/C=C2\C(=O)Nc3ccc(F)cc32)c1C [sunitinib] + OCCn1cc(-c2cnc3nnn(Cc4ccc5ncccc5c4)c3n2)cn1 [PF04217903] (first compound 0.4 µM, partner dose 1 µM)",103%,115%,90.7%,97.9%,40.3%,54.5%,43.1%,78.2%,155%,146%,38%,42.1%,96.3%,70%,62.7%,139%
"Cn1sc(=O)n(Cc2ccccc2)c1=O + Oc1cc(-c2nc(-c3ccccc3)[nH]c2-c2ccncc2)ccc1Cl [L779450] (first compound 0.4 µM, partner dose 0.2 µM)",48.6%,62.2%,152%,115%,132%,51.2%,34.5%,66.9%,57.1%,244%,101%,75%,84.8%,80.8%,96.2%,97.8%
"CC1(C)CCC(c2ccc(Cl)cc2)=C(CN2CCN(c3ccc(C(=O)NS(=O)(=O)c4ccc(N[C@H](CCN5CCOCC5)CSc5ccccc5)c(S(=O)(=O)C(F)(F)F)c4)cc3)CC2)C1 + COc1cc(N2CCC(N3CCN(C)CC3)CC2)ccc1Nc1ncc(Cl)c(Nc2ccccc2S(=O)(=O)C(C)C)n1 [NVP-TAE684] (first compound 0.4 µM, partner dose 0.08 µM)",257%,500%,123%,101%,101%,292%,71.2%,494%,149%,130%,60.1%,568%,572%,94%,122%,82.9%
"CS(=O)(=O)c1ccc(C(=O)Nc2ccc(Cl)c(-c3ccccn3)c2)c(Cl)c1 [vismodegib] + Cn1cc(/C=C2\C(=O)Nc3cccnc32)c2ccccc21 [GW441756] (first compound 1 µM, partner dose 0.4 µM)",70.2%,19.7%,136%,54.5%,67.2%,41.3%,188%,94.2%,226%,106%,57%,95.8%,71.2%,66.8%,85.2%,30.1%
